No constants are given. Whether binding was seen depends on the method and setting. Some binding calls cover weakened binding; strength is not graded here.
Tests used:
[1] = substrate: 由人血液中提取的载脂蛋白B (human) (UniProt P04114); test: specificity ELISA on plate-coated apoB, with prealbumin and blank wells as controls, anti-HA detection, OD405
[2] = substrate: 由人血液中提取的载脂蛋白B (human) (UniProt P04114); test: ELISA of periplasmic extracts on plate-coated apoB, anti-HA detection; clones sequenced from positive wells (sample OD more than 3 times control OD)

Protein sequences, listed by entry. Tags and fused reporters are not part of them. Residues count along the entry.
UniProt P04114, residues 28-4563: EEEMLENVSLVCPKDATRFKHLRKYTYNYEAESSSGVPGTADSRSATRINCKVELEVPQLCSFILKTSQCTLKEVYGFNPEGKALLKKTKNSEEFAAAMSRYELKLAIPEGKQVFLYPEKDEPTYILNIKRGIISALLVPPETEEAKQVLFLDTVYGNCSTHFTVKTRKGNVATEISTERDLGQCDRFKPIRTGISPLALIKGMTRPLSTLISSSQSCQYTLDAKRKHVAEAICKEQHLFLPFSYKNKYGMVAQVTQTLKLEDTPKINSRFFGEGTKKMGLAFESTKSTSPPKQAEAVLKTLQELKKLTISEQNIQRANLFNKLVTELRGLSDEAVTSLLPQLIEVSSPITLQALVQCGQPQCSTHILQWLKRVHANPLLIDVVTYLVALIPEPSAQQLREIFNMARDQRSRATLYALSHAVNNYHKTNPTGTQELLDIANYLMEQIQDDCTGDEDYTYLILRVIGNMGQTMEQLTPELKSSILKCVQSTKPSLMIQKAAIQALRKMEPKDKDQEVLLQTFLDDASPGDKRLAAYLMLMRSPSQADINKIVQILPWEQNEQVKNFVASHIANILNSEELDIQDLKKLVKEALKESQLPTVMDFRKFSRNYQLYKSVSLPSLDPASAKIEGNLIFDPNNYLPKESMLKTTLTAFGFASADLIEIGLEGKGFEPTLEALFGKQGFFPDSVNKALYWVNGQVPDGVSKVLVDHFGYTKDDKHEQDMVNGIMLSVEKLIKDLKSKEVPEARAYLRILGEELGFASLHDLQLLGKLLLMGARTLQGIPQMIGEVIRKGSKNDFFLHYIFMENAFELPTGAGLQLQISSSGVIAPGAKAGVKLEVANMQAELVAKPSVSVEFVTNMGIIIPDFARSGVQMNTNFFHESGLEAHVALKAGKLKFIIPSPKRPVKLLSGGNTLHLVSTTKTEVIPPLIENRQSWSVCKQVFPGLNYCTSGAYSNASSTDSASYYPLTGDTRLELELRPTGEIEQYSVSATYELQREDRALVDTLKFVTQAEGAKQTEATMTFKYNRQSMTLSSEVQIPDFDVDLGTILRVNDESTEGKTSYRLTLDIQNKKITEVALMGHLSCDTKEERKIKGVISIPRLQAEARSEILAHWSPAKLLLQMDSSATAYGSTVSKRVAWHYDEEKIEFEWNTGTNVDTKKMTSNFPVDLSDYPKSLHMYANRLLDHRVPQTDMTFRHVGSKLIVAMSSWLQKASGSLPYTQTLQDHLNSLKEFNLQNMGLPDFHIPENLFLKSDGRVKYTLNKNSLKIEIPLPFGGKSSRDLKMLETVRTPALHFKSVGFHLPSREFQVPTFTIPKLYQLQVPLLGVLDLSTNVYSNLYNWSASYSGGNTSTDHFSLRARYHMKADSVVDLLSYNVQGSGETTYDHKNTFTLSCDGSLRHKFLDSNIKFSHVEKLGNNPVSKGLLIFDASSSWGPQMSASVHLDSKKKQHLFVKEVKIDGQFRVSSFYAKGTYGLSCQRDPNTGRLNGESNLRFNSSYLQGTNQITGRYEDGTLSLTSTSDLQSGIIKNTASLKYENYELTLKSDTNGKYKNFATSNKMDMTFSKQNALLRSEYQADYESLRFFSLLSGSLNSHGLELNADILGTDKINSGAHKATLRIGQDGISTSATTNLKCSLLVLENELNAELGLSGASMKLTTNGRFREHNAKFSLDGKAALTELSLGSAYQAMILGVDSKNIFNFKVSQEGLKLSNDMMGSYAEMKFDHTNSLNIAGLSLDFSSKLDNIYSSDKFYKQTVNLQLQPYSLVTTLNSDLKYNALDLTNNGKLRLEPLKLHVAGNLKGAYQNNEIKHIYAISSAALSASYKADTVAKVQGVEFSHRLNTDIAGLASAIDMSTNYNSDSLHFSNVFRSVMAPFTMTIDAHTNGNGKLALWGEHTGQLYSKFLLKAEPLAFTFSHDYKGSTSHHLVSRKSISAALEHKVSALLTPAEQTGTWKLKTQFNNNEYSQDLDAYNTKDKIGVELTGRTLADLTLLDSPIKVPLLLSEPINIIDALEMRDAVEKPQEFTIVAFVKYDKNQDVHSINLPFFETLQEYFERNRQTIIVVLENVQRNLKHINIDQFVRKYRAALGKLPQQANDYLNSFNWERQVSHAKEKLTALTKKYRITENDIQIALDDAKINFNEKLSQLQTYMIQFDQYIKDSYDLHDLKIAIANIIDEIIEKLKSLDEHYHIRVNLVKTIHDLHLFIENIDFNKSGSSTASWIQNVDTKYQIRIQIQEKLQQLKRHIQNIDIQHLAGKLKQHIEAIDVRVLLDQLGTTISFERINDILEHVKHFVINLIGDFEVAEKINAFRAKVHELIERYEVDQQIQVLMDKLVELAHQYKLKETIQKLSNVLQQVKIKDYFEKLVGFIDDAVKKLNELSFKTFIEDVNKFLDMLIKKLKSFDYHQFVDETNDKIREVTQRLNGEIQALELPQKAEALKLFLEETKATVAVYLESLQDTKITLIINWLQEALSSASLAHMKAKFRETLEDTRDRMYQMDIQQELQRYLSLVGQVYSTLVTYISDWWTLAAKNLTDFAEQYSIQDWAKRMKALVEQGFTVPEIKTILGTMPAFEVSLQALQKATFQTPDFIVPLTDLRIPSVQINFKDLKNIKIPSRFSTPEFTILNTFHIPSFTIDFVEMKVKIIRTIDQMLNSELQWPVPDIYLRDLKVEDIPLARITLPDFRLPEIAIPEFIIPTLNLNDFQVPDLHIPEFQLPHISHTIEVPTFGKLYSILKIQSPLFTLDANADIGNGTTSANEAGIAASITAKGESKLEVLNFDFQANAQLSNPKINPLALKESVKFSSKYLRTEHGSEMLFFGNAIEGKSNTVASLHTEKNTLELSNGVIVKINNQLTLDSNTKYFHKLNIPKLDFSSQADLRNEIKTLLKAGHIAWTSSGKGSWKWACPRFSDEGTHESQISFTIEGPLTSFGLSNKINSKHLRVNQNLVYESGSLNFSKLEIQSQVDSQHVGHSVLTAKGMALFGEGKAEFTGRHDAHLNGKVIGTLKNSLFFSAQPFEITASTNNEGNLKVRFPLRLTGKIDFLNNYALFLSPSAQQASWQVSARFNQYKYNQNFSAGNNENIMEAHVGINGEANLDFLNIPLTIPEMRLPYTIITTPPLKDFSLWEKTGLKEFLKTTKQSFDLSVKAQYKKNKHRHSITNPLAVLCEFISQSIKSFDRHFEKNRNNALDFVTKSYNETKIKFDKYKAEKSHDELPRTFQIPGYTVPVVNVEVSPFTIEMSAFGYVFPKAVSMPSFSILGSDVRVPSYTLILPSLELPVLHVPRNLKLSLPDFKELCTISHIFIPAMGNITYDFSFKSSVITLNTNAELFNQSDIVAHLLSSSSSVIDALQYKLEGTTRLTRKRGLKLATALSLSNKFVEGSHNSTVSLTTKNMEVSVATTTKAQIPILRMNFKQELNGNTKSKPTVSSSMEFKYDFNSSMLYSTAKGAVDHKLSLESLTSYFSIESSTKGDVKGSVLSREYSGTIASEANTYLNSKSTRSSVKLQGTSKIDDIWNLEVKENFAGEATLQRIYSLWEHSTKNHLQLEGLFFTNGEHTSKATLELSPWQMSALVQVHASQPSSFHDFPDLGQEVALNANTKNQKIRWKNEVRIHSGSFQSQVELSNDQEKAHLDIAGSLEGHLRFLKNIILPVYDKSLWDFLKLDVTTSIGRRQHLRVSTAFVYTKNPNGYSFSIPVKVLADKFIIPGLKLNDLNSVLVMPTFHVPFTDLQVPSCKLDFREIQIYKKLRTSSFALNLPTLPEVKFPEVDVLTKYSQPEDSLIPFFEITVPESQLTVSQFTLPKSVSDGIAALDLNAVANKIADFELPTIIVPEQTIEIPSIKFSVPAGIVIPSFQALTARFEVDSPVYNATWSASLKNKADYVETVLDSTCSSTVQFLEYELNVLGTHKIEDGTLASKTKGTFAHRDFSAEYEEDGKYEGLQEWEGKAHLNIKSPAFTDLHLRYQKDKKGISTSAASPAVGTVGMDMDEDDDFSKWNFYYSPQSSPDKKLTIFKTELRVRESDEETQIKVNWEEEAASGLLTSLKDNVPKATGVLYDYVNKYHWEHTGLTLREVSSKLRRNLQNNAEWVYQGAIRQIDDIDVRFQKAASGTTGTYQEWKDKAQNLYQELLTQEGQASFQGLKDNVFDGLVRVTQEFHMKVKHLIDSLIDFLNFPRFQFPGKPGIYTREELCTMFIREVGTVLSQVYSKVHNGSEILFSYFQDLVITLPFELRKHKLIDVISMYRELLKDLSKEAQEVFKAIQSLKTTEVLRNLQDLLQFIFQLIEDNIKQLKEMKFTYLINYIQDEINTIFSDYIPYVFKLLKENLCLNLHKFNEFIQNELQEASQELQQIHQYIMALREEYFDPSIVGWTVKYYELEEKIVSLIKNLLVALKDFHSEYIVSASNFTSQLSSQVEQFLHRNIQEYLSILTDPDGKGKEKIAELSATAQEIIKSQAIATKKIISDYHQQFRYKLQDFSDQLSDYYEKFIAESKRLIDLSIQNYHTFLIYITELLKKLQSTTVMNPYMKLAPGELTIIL

binding [1]: binds | binding [2]: binds
B1: 载脂蛋白B纳米抗体 (VHH链 SEQ ID NO:15) (VHH)
VHH: QVQLQESGGGSVQAGGSLRLSCVASGYSDRAVNMGWFRQAPGKDRDWVAAISRGGCLTYYADSVKGRFTISQDKAKNTVYLQMDSLKPEDTAIYYCGPGSSQVQITLSQNLVWGQGTQVTVSS

Reference: patent CN103342750A
